Experiment: Oxygen radical absorbance capacity-fluorescein (ORAC-FL) assay
Details: Trolox equivalents, Trolox = 1

## COc1cc2c(cc1OC)C(=O)C(CC1CCN(Cc3ccccc3)CC1)C2 (stereo not shown) [Donepezil, donepezil, reference compound]
  ORAC: <0.1 μM of Trolox equivalent/μMof tested compound

— article PMC6152180, “Design, Synthesis and Evaluation of Hesperetin Derivatives as Potential Multifunctional Anti-Alzheimer Agents” (Molecules : A Journal of Synthetic Chemistry and Natural …, 2017)
